According to publication doi:10.1101/2024.01.03.574021:
No constants are given. Whether binding was seen depends on the method and setting. Binding seen in cells or lysates may run through a third protein. A yes stands for co-enrichment or nearness to the bait. Other partners may have been found.

Chains of the proteins cited; added tags and fusions are not shown.
UniProt Q04206: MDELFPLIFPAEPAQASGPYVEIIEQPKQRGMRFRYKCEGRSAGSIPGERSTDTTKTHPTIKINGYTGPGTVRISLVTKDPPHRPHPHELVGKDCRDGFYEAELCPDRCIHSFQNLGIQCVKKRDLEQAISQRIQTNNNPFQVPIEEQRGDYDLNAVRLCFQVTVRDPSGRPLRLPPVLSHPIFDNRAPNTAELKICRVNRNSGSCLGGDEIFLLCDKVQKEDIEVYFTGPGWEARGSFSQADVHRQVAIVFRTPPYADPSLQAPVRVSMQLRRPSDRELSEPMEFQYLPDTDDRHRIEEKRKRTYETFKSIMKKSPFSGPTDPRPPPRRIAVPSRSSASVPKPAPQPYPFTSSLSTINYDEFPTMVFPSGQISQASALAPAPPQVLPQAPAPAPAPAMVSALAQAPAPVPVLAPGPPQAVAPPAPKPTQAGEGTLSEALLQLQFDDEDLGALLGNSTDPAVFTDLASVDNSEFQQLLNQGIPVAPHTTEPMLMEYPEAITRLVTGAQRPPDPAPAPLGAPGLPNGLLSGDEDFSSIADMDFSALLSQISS
UniProt P49715: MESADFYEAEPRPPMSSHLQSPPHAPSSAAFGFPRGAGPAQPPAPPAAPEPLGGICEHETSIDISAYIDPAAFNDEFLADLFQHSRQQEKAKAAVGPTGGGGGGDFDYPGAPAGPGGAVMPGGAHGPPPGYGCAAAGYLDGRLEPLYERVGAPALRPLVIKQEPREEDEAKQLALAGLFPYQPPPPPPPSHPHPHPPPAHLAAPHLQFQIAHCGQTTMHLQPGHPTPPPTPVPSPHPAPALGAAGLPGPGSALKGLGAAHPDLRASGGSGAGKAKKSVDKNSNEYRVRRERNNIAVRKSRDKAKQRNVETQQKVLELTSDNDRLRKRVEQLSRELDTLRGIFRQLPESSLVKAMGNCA
UniProt Q92769: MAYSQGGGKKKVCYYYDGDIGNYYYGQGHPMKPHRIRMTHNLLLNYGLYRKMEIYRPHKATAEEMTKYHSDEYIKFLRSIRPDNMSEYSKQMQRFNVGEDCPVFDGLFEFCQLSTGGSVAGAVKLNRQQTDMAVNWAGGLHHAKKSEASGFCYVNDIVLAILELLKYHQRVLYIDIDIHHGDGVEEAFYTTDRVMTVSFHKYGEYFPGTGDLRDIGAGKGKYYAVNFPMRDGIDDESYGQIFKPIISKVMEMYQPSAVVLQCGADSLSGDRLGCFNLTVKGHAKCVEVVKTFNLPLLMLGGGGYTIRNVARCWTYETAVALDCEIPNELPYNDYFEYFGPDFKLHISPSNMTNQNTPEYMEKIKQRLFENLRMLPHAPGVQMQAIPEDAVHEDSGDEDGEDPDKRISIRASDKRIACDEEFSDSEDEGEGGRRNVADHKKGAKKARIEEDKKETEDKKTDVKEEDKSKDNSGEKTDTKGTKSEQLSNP
UniProt P51617: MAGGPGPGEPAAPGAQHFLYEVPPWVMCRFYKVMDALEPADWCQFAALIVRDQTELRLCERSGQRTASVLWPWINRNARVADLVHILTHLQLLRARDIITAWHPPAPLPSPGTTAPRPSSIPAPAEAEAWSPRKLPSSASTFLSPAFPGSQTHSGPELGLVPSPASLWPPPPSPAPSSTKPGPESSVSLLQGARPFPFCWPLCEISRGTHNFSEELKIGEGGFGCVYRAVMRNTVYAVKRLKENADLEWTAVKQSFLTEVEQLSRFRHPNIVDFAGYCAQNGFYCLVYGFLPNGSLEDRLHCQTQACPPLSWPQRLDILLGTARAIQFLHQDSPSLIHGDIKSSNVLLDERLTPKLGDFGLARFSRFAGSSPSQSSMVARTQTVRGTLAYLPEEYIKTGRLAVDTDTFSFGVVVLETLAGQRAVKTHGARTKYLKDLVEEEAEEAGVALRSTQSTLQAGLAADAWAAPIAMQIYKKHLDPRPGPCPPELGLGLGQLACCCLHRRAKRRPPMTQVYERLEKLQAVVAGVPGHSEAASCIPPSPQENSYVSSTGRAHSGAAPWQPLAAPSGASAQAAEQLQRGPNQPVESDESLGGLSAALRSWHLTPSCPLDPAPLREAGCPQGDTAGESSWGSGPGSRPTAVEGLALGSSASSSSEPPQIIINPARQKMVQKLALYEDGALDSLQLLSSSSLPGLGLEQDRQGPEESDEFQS
UniProt P05412: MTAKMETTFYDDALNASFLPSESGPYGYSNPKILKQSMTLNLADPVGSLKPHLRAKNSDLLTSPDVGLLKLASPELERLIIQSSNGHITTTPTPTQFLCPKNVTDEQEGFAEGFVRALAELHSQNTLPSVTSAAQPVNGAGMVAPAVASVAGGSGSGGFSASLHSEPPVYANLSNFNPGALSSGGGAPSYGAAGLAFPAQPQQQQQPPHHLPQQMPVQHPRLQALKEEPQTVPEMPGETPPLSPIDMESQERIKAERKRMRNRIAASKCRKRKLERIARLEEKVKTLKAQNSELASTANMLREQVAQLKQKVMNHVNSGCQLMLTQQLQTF
UniProt Q92830: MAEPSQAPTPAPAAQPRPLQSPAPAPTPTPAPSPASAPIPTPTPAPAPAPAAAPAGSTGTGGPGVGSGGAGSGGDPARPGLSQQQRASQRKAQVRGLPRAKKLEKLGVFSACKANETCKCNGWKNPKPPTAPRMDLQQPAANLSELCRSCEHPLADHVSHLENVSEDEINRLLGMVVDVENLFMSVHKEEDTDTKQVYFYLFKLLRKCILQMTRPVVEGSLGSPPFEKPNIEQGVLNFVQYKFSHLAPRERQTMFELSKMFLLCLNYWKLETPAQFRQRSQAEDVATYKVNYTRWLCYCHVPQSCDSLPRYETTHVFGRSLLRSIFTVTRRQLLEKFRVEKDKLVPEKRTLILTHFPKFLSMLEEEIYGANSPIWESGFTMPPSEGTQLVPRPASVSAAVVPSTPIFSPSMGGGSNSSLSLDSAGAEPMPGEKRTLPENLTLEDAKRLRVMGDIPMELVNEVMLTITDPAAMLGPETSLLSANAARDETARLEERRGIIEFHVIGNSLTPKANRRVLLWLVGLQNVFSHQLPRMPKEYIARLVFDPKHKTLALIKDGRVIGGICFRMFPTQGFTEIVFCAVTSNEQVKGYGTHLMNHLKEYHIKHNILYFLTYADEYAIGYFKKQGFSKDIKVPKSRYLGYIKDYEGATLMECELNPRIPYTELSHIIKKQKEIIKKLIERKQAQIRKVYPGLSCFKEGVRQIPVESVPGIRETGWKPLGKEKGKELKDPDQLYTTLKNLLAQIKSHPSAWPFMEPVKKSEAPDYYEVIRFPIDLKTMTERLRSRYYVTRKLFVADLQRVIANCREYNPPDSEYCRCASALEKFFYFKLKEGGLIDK
UniProt Q96RN5: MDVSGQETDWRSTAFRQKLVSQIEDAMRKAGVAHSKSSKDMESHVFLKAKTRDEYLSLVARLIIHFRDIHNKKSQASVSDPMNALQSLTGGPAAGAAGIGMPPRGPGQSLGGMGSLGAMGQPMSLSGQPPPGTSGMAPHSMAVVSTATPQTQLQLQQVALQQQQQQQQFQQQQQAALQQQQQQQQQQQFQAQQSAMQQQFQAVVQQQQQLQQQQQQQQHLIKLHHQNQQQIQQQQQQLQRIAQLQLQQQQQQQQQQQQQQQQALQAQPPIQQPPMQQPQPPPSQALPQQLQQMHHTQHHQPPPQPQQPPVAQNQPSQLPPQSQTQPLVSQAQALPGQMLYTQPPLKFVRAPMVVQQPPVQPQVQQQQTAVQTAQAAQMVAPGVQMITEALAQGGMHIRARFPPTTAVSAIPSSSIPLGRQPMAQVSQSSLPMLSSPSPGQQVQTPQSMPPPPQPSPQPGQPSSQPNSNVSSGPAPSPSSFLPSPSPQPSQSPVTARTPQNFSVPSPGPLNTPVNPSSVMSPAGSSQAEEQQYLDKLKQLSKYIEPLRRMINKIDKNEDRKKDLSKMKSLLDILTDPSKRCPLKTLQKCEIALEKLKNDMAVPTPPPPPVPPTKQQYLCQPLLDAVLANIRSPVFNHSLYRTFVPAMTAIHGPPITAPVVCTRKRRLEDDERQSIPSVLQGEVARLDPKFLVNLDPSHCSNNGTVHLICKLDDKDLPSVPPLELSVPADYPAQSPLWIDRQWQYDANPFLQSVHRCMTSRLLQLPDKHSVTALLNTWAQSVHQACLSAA
UniProt Q9BTK6: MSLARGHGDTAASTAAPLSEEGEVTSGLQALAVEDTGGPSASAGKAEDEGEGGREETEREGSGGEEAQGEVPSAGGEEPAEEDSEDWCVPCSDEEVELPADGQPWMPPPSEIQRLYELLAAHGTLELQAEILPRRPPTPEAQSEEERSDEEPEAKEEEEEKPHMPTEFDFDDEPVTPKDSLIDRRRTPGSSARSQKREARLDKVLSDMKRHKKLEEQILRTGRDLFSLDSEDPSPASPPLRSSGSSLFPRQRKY
UniProt Q6ZW49: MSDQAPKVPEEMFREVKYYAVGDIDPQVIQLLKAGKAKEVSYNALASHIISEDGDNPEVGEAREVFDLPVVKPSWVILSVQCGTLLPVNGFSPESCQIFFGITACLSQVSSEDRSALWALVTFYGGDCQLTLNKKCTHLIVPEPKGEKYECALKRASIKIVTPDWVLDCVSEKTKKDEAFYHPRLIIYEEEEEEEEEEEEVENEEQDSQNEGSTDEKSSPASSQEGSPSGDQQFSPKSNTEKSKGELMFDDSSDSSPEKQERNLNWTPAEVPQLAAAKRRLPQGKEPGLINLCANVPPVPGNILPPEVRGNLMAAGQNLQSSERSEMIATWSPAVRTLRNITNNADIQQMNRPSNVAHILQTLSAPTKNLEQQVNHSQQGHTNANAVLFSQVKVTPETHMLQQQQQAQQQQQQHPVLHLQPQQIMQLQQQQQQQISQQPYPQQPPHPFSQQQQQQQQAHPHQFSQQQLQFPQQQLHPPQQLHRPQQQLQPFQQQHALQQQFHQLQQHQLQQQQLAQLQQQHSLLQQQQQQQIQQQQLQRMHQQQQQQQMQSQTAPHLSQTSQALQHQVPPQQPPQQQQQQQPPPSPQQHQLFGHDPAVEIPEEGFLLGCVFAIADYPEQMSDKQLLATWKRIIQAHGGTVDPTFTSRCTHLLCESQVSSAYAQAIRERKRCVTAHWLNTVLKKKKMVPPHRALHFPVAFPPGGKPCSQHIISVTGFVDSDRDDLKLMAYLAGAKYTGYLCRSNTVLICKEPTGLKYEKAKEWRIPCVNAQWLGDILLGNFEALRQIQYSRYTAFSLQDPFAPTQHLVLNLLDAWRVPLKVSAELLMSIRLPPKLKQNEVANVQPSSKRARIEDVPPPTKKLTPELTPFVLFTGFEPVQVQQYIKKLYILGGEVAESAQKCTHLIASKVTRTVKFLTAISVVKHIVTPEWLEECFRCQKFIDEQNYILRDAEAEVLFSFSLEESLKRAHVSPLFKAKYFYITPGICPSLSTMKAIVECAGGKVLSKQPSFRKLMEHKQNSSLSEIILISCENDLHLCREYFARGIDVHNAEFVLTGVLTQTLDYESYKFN
UniProt Q92993: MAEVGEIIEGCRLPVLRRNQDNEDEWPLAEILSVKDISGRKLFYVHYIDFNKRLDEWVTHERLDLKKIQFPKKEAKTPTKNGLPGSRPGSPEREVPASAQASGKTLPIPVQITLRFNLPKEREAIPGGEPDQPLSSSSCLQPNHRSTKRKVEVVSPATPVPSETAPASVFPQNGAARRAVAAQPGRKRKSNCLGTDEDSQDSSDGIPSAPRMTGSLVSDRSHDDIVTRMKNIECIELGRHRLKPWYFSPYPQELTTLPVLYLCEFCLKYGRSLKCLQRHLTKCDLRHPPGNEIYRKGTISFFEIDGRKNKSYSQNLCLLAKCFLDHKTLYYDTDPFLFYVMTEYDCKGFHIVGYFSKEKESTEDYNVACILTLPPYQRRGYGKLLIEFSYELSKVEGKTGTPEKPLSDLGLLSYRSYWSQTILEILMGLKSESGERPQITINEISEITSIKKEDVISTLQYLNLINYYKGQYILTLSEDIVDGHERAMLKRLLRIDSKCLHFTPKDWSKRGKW
UniProt P19532: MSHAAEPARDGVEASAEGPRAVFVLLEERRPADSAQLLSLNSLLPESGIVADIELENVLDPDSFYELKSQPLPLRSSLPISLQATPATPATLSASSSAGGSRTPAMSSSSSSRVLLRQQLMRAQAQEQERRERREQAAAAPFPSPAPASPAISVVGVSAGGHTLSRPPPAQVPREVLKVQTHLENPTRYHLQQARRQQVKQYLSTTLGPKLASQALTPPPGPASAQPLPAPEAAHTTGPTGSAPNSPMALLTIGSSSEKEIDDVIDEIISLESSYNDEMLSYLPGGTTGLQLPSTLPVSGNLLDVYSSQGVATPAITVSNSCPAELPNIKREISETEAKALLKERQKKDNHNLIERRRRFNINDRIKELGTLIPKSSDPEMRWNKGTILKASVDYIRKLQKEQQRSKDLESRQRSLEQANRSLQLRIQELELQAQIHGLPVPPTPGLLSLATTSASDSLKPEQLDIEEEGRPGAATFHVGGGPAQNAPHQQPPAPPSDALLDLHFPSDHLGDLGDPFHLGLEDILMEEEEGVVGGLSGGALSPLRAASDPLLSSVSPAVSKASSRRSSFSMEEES

B1: p52 (NFKB2) (protein, UniProt Q00653)
chain: MESCYNPGLDGIIEYDDFKLNSSIVEPKEPAPETADGPYLVIVEQPKQRGFRFRYGCEGPSHGGLPGASSEKGRKTYPTVKICNYEGPAKIEVDLVTHSDPPRAHAHSLVGKQCSELGICAVSVGPKDMTAQFNNLGVLHVTKKNMMGTMIQKLQRQRLRSRPQGLTEAEQRELEQEAKELKKVMDLSIVRLRFSAFLRASDGSFSLPLKPVISQPIHDSKSPGASNLKISRMDKTAGSVRGGDEVYLLCDKVQKDDIEVRFYEDDENGWQAFGDFSPTDVHKQYAIVFRTPPYHKMKIERPVTVFLQLKRKRGGDVSDSKQFTYYPLVEDKEEVQRKRRKALPTFSQPFGGGSHMGGGSGGAAGGYGGAGGGGSLGFFPSSLAYSPYQSGAGPMGCYPGGGGGAQMAATVPSRDSGEEAAEPSAPSRTPQCEPQAPEMLQRAREYNARLFGLA
B2: ATF2 (protein, UniProt P15336 1-505)
chain: MKFKLHVNSARQYKDLWNMSDDKPFLCTAPGCGQRFTNEDHLAVHKHKHEMTLKFGPARNDSVIVADQTPTPTRFLKNCEEVGLFNELASPFENEFKKASEDDIKKMPLDLSPLATPIIRSKIEEPSVVETTHQDSPLPHPESTTSDEKEVPLAQTAQPTSAIVRPASLQVPNVLLTSSDSSVIIQQAVPSPTSSTVITQAPSSNRPIVPVPGPFPLLLHLPNGQTMPVAIPASITSSNVHVPAAVPLVRPVTMVPSVPGIPGPSSPQPVQSEAKMRLKAALTQQHPPVTNGDTVKGHGSGLVRTQSEESRPQSLQQPATSTTETPASPAHTTPQTQSTSGRRRRAANEDPDEKRRKFLERNRAAASRCRQKRKVWVQSLEKKAEDLSSLNGQLQSEVTLLRNEVAQLKQLLLAHKDCPVTAMQKKSGYHTADKDDSSEDISVPSSPHTEAIQHSSVSTSNGVSSTSKAEAVATSVLTQMADQSTEPALSQIVMAPSSQSQPSGS
B3: FOSL2 (protein, UniProt P15408 1-326)
chain: MYQDYPGNFDTSSRGSSGSPAHAESYSSGGGGQQKFRVDMPGSGSAFIPTINAITTSQDLQWMVQPTVITSMSNPYPRSHPYSPLPGLASVPGHMALPRPGVIKTIGTTVGRRRRDEQLSPEEEEKRRIRRERNKLAAAKCRNRRRELTEKLQAETEELEEEKSGLQKEIAELQKEKEKLEFMLVAHGPVCKISPEERRSPPAPGLQPMRSGGGSVGAVVVKQEPLEEDSPSSSSAGLDKAQRSVIKPISIAGGFYGEEPLHTPIVVTSTPAVTPGTSNLVFTYPSVLEQESPASPSESCSKAHRRSSSSGDQSSDSLNSPTLLAL
B4: zinc finger and BTB domain containing 5 (ZBTB5) (protein, UniProt O15062 1-677)
chain: MDFPGHFEQIFQQLNYQRLHGQLCDCVIVVGNRHFKAHRSVLAACSTHFRALFSVAEGDQTMNMIQLDSEVVTAEAFAALIDMMYTSTLMLGESNVMDVLLAASHLHLNSVVKACKHYLTTRTLPMSPPSERVQEQSARMQRSFMLQQLGLSIVSSALNSSQNGEEQPAPMSSSMRSNLDQRTPFPMRRLHKRKQSAEERARQRLRPSIDESAISDVTPENGPSGVHSREEFFSPDSLKIVDNPKADGMTDNQEDSAIMFDQSFGTQEDAQVPSQSDNSAGNMAQLSMASRATQVETSFDQEAAPEKSSFQCENPEVGLGEKEHMRVVVKSEPLSSPEPQDEVSDVTSQAEGSESVEVEGVVVSAEKIDLSPESSDRSFSDPQSSTDRVGDIHILEVTNNLEHKSTFSISNFLNKSRGNNFTANQNNDDNIPNTTSDCRLESEAPYLLSPEAGPAGGPSSAPGSHVENPFSEPADSHFVRPMQEVMGLPCVQTSGYQGGEQFGMDFSRSGLGLHSSFSRVMIGSPRGGASNFPYYRRIAPKMPVVTSVRSSQIPENSTSSQLMMNGATSSFENGHPSQPGPPQLTRASADVLSKCKKALSEHNVLVVEGARKYACKICCKTFLTLTDCKKHIRVHTGEKPYACLKCGKRFSQSSHLYKHSKTTCLRWQSSNLPSTLL
B5: Zinc finger protein GLI-similar 2 (GLIS2) (protein, UniProt Q9BZE0 1-524)
chain: MHSLDEPLDLKLSITKLRAAREKRERTLGVVRPRALHRELGLVDDSPTPGSPGSPPSGFLLNSKFPEKVEGRFSAAPLVDLSLSPPSGLDSPNGSSSLSPERQGNGDLPPVPSASDFQPLRYLDGVPSSFQFFLPLGSGGALHLPASSFLTPPKDKCLSPDLPLPKQLVCRWAKCNQLFELLQDLVDHVNDYHVKPEKDAGYCCHWEGCARHGRGFNARYKMLIHIRTHTNEKPHRCPTCSKSFSRLENLKIHNRSHTGEKPYVCPYEGCNKRYSNSSDRFKHTRTHYVDKPYYCKMPGCHKRYTDPSSLRKHIKAHGHFVSHEQQELLQLRPPPKPPLPAPDGGPYVSGAQIIIPNPAALFGGPGLPGLPLPLAPGPLDLSALACGNGGGSGGGGGMGPGLPGPVLPLNLAKNPLLPSPFGAGGLGLPVVSLLAGAAGGKAEGEKGRGSVPTRALGMEGHKTPLERTESSCSRPSPDGLPLLPGTVLDLSTGVNSAASSPEALAPGWVVIPPGSVLLKPAVVN
B6: S100A8 (protein, UniProt P05109 1-93)
chain: MLTELEKALNSIIDVYHKYSLIKGNFHAVYRDDLKKLLETECPQYIRKKGADVWFKELDINTDGAVNFQEFLILVIKMGVAAHKKSHEESHKE
B7: S100A9 (protein, UniProt P06702 1-114)
chain: MTCKMSQLERNIETIINTFHQYSVKLGHPDTLNQGEFKELVRKDLQNFLKKENKNEKVIEHIMEDLDTNADKQLSFEEFIMLMARLTWASHEKMHEGDEGPGHHHKPGLGEGTP
B8: GLIS1 (protein, UniProt Q8NBF1 1-620)
chain: MAEARTSLSAHCRGPLATGLHPDLDLPGRSLATPAPSCYLLGSEPSSGLGLQPETHLPEGSLKRCCVLGLPPTSPASSSPCASSDVTSIIRSSQTSLVTCVNGLRSPPLTGDLGGPSKRARPGPASTDSHEGSLQLEACRKASFLKQEPADEFSELFGPHQQGLPPPYPLSQLPPGPSLGGLGLGLAGRVVAGRQACRWVDCCAAYEQQEELVRHIEKSHIDQRKGEDFTCFWAGCVRRYKPFNARYKLLIHMRVHSGEKPNKCMFEGCSKAFSRLENLKIHLRSHTGEKPYLCQHPGCQKAFSNSSDRAKHQRTHLDTKPYACQIPGCSKRYTDPSSLRKHVKAHSAKEQQVRKKLHAGPDTEADVLTECLVLQQLHTSTQLAASDGKGGCGLGQELLPGVYPGSITPHNGLASGLLPPAHDVPSRHHPLDATTSSHHHLSPLPMAESTRDGLGPGLLSPIVSPLKGLGPPPLPPSSQSHSPGGQPFPTLPSKPSYPPFQSPPPPPLPSPQGYQGSFHSIQSCFPYGDCYRMAEPAAGGDGLVGETHGFNPLRPNGYHSLSTPLPATGYEALAEASCPTALPQQPSEDVVSSGPEDCGFFPNGAFDHCLGHIPSIYTDT
B9: GLIS3 (protein, UniProt Q8NEA6 1-775)
chain: MMVQRLGLISPPASQVSTACNQISPSLQRAMNAANLNIPPSDTRSLISRESLASTTLSLTESQSASSMKQEWSQGYRALPSLSNHGSQNGLDLGDLLSLPPGTSMSSNSVSNSLPSYLFGTESSHSPYPSPRHSSTRSHSARSKKRALSLSPLSDGIGIDFNTIIRTSPTSLVAYINGSRASPANLSPQPEVYGHFLGVRGSCIPQPRPVPGSQKGVLVAPGGLALPAYGEDGALEHERMQQLEHGGLQPGLVNHMVVQHGLPGPDSQSAGLFKTERLEEFPGSTVDLPPAPPLPPLPPPPGPPPPYHAHAHLHHPELGPHAQQLALPQATLDDDGEMDGIGGKHCCRWIDCSALYDQQEELVRHIEKVHIDQRKGEDFTCFWAGCPRRYKPFNARYKLLIHMRVHSGEKPNKCTFEGCEKAFSRLENLKIHLRSHTGEKPYLCQHPGCQKAFSNSSDRAKHQRTHLDTKPYACQIPGCTKRYTDPSSLRKHVKAHSSKEQQARKKLRSSTELHPDLLTDCLTVQSLQPATSPRDAAAEGTVGRSPGPGPDLYSAPIFSSNYSSRSGTAAGAVPPPHPVSHPSPGHNVQGSPHNPSSQLPPLTAVDAGAERFAPSAPSPHHISPRRVPAPSSILQRTQPPYTQQPSGSHLKSYQPETNSSFQPNGIHVHGFYGQLQKFCPPHYPDSQRIVPPVSSCSVVPSFEDCLVPTSMGQASFDVFHRAFSTHSGITVYDLPSSSSSLFGESLRSGAEDATFLQISTVDRCPSQLSSVYTEG
B10: ATF1 (protein, UniProt P18846 1-271)
chain: MEDSHKSTTSETAPQPGSAVQGAHISHIAQQVSSLSESEESQDSSDSIGSSQKAHGILARRPSYRKILKDLSSEDTRGRKGDGENSGVSAAVTSMSVPTPIYQTSSGQYIAIAPNGALQLASPGTDGVQGLQTLTMTNSGSTQQGTTILQYAQTSDGQQILVPSNQVVVQTASGDMQTYQIRTTPSATSLPQTVVMTSPVTLTSQTTKTDDPQLKREIRLMKNREAARECRRKKKEYVKCLENRVAVLENQNKTLIEELKTLKDLYSNKSV
B11: ATF3 (protein, UniProt P18847 1-181)
chain: MMLQHPGQVSASEVSASAIVPCLSPPGSLVFEDFANLTPFVKEELRFAIQNKHLCHRMSSALESVTVSDRPLGVSITKAEVAPEEDERKKRRRERNKIAAAKCRNKKKEKTECLQKESEKLESVNAELKAQIEELKNEKQHLIYMLNLHRPTCIVRAQNGRTPEDERNLFIQQIKEGTLQS

These molecules were tested against p65(wt)-HA-miniTurbo (human) (UniProt Q04206) (assay: proximity labelling).

Molecule | binding
CEBPA (from UniProt P49715 1-358) | binds
DPF1 (from UniProt Q92782 1-387) | binds
DPF2 (from UniProt Q92785 1-391) | binds
HDAC1 (from UniProt Q13547 1-482) | binds
HDAC2 (from UniProt Q92769 1-488) | binds
IRAK1 (from UniProt P51617 1-712) | binds
JUN (from UniProt P05412 1-331) | binds
KAT2A (from UniProt Q92830 1-837) | binds
MED15 (from UniProt Q96RN5 1-788) | binds
NCOA6 (from UniProt Q14686 1-2063) | binds
PAGR1 (from UniProt Q9BTK6 1-254) | binds
PAXIP1 (from UniProt Q6ZW49 1-1069) | binds
TIP60 (KAT5) (from UniProt Q92993 1-513) | binds
ZBTB7A (from UniProt O95365 1-584) | binds
ZBTB7B (from UniProt O15156 1-539) | binds
microphthalmia-associated transcription factor (MITF) (from UniProt O75030 1-526) | binds
transcription factor E3 (TFE3) (from UniProt P19532 1-575) | binds

Target: p65(wt)-HA-miniTurbo (human) (UniProt Q04206)
Test: proximity labelling
Remark: another data set of the same source

Molecule | binding
B1 | binds
B2 | binds
B3 | binds
B4 | binds
B5 | binds
B6 | binds
B7 | binds
B8 | binds
B9 | binds
B10 | binds
B11 | binds
